For at least one entry, the source does not settle the construct or the ends of the probe. At least one verdict rests on a figure or table, not on a statement of the authors.
Key:
MeCP2 MBD 77-167 WT = MeCP2 MBD 77-167 WT (UniProt P51608); assay: EMSA; conditions: poly(dA-dT) competitor; 5-methylcytosine at the central CG (C21 of S5, the only CG; methylation of the reverse strand at C37 presumed, not stated explicitly); EMSA: 1 ng probe, 1 ug poly(dA-dT) competitor, 10 mM Tris-HCl pH 7.5, 150 mM KCl, 0.1 mM EDTA, 5% glycerol, 0.1 mg/ml BSA, on ice 20 min; 10% acrylamide TBE gel; recombinant protein; residues 77-167; protein details: C-terminal His (pET30b)
MeCP2 1-205 WT = assay: EMSA; conditions: poly(dA-dT) competitor; 5-methylcytosine at the central CG (C21 of S5, the only CG; methylation of the reverse strand at C37 presumed, not stated explicitly); EMSA: 1 ng probe, 1 ug poly(dA-dT) competitor, 10 mM Tris-HCl pH 7.5, 150 mM KCl, 0.1 mM EDTA, 5% glycerol, 0.1 mg/ml BSA, on ice 20 min; 10% acrylamide TBE gel; recombinant protein; protein details: C-terminal His (pET30b)

The chains behind the UniProt entries cited, without tags or fusion partners. Where a name states a change or a piece, a line headed by the entry shows the natural chain unless it says otherwise.
UniProt P51608: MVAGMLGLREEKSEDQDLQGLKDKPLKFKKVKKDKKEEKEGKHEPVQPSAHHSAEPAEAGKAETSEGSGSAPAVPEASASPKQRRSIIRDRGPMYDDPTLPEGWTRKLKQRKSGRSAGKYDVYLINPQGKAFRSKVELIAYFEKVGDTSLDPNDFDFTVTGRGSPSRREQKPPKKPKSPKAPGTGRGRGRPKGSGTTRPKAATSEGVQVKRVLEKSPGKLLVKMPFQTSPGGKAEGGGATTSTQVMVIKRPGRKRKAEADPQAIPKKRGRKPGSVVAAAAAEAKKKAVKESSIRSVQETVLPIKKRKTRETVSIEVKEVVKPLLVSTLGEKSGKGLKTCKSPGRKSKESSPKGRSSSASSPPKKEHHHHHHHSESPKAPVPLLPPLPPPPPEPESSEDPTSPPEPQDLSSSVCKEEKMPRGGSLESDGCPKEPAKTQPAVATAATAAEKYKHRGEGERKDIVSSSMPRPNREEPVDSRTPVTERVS

AAGCATGCAATGCCCTGGAACGGAATTCTTCTAATAAAAGATGTATCATTTTAAATGC (double strand) [Bdnf promoter mCG probe]
binding result (MeCP2 MBD 77-167 WT): binds | binding result (MeCP2 1-205 WT): binds
